Literature values, collected in patent US9724304B2, “Nanospheres for therapeutic agent delivery” (Temple University—Of The Commonwealth System of Higher …, priority 2012, dated 2017).
Converted amounts (≈) assume the structure as drawn.

Settings: at 25° C.

- aqueous solubility: 0.035 mg/mL (≈ 97.8 µM)
SMILES: COc1ccc2c(c1)c(CC(=O)O)c(C)n2C(=O)c1ccc(Cl)cc1 [IDMC, indomethacin]
